Measurements from PubChem BioAssay AID1347075 (National Center for Advancing Translational Sciences (NCATS), 2019).
About 5,500 (1.4%) of roughly 400,000 compounds were called active. The shares of active, inactive and inconclusive entries below differ from those in the screen. Calls follow the shape of the dose curve; as a rule, active = well fitted cell-killing curve with a large enough effect; inconclusive = small, poorly fitted or top-dose-only effect, or effect the other way; inactive = flat fitted curve, though single readings scatter. Where the call is inconclusive, the potency comes from a doubtful curve fit.

assay: qHTS assay for MDR1-selective chemotherapeutics: Primary screen using the parental adenocarcinoma cell KB-3-1; settings: KB-3-1 viability, CellTiter-Glo ATP luminescence, 72 h; series mostly up to 46.1 µM; also: nearly all actives have a fitted effect of over 60% in size
Procedure, shortened: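 Cytotoxicity measured as CellTiter-Glo luminescence after 72 h at 37 C. Compound titrations were pinned onto drug-naive KB-3-1 parental adenocarcinoma cells grown in DMEM with 10% FBS, and normalized data fitted to concentration-response curves.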
Potency is read from the fitted curve at half-maximal effect.

Compound	Potency
O=C(C1CCN(c2ncnc3c2nc2n3CCCCC2)CC1)N1CCCCC1	inconclusive: 6.51 µM [cytotoxic, full curve]
CCC(=O)c1c[nH]c(C(=O)NCCCn2ccnc2)c1	inactive
CC(=O)Oc1ccc(-c2ccc(C(=O)Nc3cccc(S(=O)(=O)N4CCOCC4)c3)cc2)cc1	inconclusive: 29.1 µM [cytotoxic, single point]
Cc1cc(C)c(C(=O)c2ccccc2C(=O)O)c(C)c1	inactive
O=C(CCc1nnc2ccc(NCc3ccco3)nn12)N1CCCCC1	inactive
O=C(NC(Nc1nc2ccc([N+](=O)[O-])cc2s1)(C(F)(F)F)C(F)(F)F)c1ccccc1Cl	inconclusive: 0.58 µM [cytotoxic, full curve, poor fit]
CCc1ccc2[nH]c(O)c(N=Nc3nc(-c4ccccc4)cs3)c2c1	inconclusive: 23.1 µM [cytotoxic, single point]
COc1ccc(CC(=O)Nc2ccc(-c3noc(-c4ccc(Cl)cc4)n3)cc2)cc1	inconclusive: 5.8 µM [cytotoxic, full curve]
CCOC(=O)CNC(=O)CSc1nc(-c2ccc(C)cc2)ns1	inconclusive: 29.1 µM [rising, single point]
COc1ccc(-c2cc3ccc(OC)cc3cn2)cc1	inconclusive: 4.61 µM [cytotoxic, full curve]
COc1ccc(S(=O)(=O)N2CCCCCC2)cc1C(=O)N1CCN(c2ccccc2C)CC1	inconclusive: 29.1 µM [cytotoxic, single point]
N/C(=N\OC(=O)c1ccccc1)C(C(=O)NOC(=O)c1ccccc1)C1CCCCC1 (centres undefined)	active: 23.1 µM
c1ccc(-c2nc(N3CCCCCC3)nc(-n3ccnc3)n2)cc1	inconclusive: 35.5 µM [cytotoxic, single point]
Cc1ccc(C(=O)N/N=C\c2ccc(-c3ccc(Cl)cc3)o2)cn1	inconclusive: 29.1 µM [cytotoxic, single point]
Cc1ccc(Cc2cnc(N3C(=N)SC(C)C3=O)s2)cc1 (centres undefined)	inconclusive: 29.1 µM [cytotoxic, single point]
O=C1C(NS(=O)(=O)c2cccs2)=C(N2CCN(c3cccc(Cl)c3)CC2)C(=O)c2ccccc21	inconclusive: 18.4 µM [cytotoxic, single point]
COCC1CCN(C(=O)CCc2nnc(C3(c4ccc(Cl)cc4)CCC3)o2)C1 (centres undefined)	inconclusive: 23.1 µM [rising, single point]
COc1ccc(Cc2n[nH]c(=S)n(N)c2=O)cc1	inactive
CN(C)C(CNc1ccc(C(N)=O)cc1[N+](=O)[O-])c1ccccc1 (centres undefined)	inconclusive: 0.0052 µM [rising, full curve, poor fit]

Looked up above:
Under Potency, `COc1ccc(CC(=O)Nc2ccc(-c3noc(-c4ccc(Cl)cc4)n3)cc2)cc1` reads inconclusive: 5.8 µM [cytotoxic, full curve]
Under Potency, `O=C(NC(Nc1nc2ccc([N+](=O)[O-])cc2s1)(C(F)(F)F)C(F)(F)F)c1ccccc1Cl` reads inconclusive: 0.58 µM [cytotoxic, full curve, poor fit]
